PubChem BioAssay AID1224829 – NIAID, 2016
This is an unselected part of about 3,800 reagents tested. 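Calls cover raised and lowered translocation; gene median uses one vendor's three siRNAs; qiagen siRNAs acted more weakly than ambion siRNAs.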 A number with no mark means an inactive call. The numbers tell different reagents against one gene apart.

Test: 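Secondary check of hits that alter LPS-induced p65 translocation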 (follow-up of hits)
System: mouse RAW264.7 G9 macrophage reporter cells
Knock-down reagent: single siRNA against mouse genes, 100 nM
Duration: 2 days of siRNA knock-down, then 40 min of LPS before fixing
Challenge: LPS (Salmonella minnesota R595) at 10 ng/ml
Read-out: 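High-content images after 40 min LPS exposure; GFP-p65 nucleus to surrounding ring signal ratio, normalised to plate median and non-targeting control wells, expressed as z-score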
Scale: p65 translocation z-score and gene median z-score, per vendor: higher = more nuclear NF-kappaB p65 after LPS
Hit rule: 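Active means the replicate-mean z-score lies beyond plus or minus 2, in either direction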
Meaning of the calls: active = changed p65 translocation (either direction); inactive = no clear change

| gene knocked down | reagent no. | siRNA vendor or control pool | p65 translocation z-score, replicate mean | p65 translocation z-score, replicate 1 | p65 translocation z-score, replicate 2 | gene median z-score, per vendor |
| --- | --- | --- | --- | --- | --- | --- |
| Tacc1 | 1 | ambion single siRNA | -2.05 (active) | -2.61 | -1.49 | -1.13 |
| Tacc1 | 2 | ambion single siRNA | 2.4 (active) | 3.45 | 1.36 | -1.13 |
| Tacc1 | 3 | ambion single siRNA | -1.24 | -1.72 | -0.765 | -1.13 |
| Tacc1 | 4 | qiagen single siRNA | 1.62 | 0.605 | 2.63 | -0.00907 |
| Tacc1 | 5 | qiagen single siRNA | -0.613 | 0.0334 | -1.26 | -0.00907 |
| Tacc1 | 6 | qiagen single siRNA | -0.918 | -0.0516 | -1.78 | -0.00907 |
| Neil2 | 1 | ambion single siRNA | -1.81 | -1.22 | -2.41 | -2.41 |
| Neil2 | 2 | ambion single siRNA | -4 (active) | -4 | – | -2.41 |
| Neil2 | 3 | ambion single siRNA | – | – | – | -2.41 |
| Neil2 | 4 | qiagen single siRNA | -0.643 | -1.31 | 0.0263 | -0.643 |
| Neil2 | 5 | qiagen single siRNA | -1.55 | -1.55 | – | -0.643 |
| Neil2 | 6 | qiagen single siRNA | 1.09 | 1.09 | – | -0.643 |
| Iqcc | 1 | ambion single siRNA | 2.01 (active) | 2.75 | 1.28 | -2.42 |
| Iqcc | 2 | ambion single siRNA | -2.42 (active) | -2.27 | -2.57 | -2.42 |
| Iqcc | 3 | ambion single siRNA | -5.27 (active) | -5.08 | -5.47 | -2.42 |
| Sugp2 | 1 | ambion single siRNA | -2.85 (active) | -3.65 | -2.06 | 0.0664 |
| Sugp2 | 2 | ambion single siRNA | 2.12 (active) | 3.96 | 0.278 | 0.0664 |
| Sugp2 | 3 | ambion single siRNA | 1.15 | 2.45 | -0.145 | 0.0664 |
| Sugp2 | 4 | qiagen single siRNA | -0.0457 | -0.469 | 0.378 | 0.378 |
| Sugp2 | 5 | qiagen single siRNA | 2.01 (active) | 1.1 | 2.91 | 0.378 |
| Sugp2 | 6 | qiagen single siRNA | -2.23 (active) | -2.23 | – | 0.378 |
| Adsl | 1 | ambion single siRNA | 2.46 (active) | 3.63 | 1.28 | -1.47 |
| Adsl | 2 | ambion single siRNA | -1.47 | -1.67 | -1.27 | -1.47 |
| Adsl | 3 | ambion single siRNA | -2.47 (active) | -2.87 | -2.06 | -1.47 |
| Adsl | 4 | qiagen single siRNA | -0.443 | -0.414 | -0.472 | 0.211 |
| Adsl | 5 | qiagen single siRNA | 1.02 | -0.0289 | 2.08 | 0.211 |
| Adsl | 6 | qiagen single siRNA | 0.565 | 0.451 | 0.678 | 0.211 |
| Map1a | 1 | qiagen single siRNA | 0.991 | 1.25 | 0.728 | -1.36 |
| Map1a | 2 | qiagen single siRNA | -1.99 | -2.47 | -1.51 | -1.36 |
| Map1a | 3 | qiagen single siRNA | -2.67 (active) | -1.2 | -4.14 | -1.36 |
| Arhgef25 | 1 | ambion single siRNA | 1.23 | 2.33 | 0.126 | -0.816 |
| Arhgef25 | 2 | ambion single siRNA | -2.54 (active) | -2.24 | -2.84 | -0.816 |
| Arhgef25 | 3 | ambion single siRNA | -0.164 | 1.43 | -1.76 | -0.816 |
| Arhgef25 | 4 | qiagen single siRNA | 1.59 | 0.413 | 2.76 | 0.85 |
| Arhgef25 | 5 | qiagen single siRNA | 2.23 (active) | 1.29 | 3.17 | 0.85 |
| Arhgef25 | 6 | qiagen single siRNA | -2.6 (active) | -0.714 | -4.48 | 0.85 |

4 successive reagents already listed, quoted:
| gene knocked down | reagent no. | siRNA vendor or control pool | p65 translocation z-score, replicate mean | p65 translocation z-score, replicate 1 | p65 translocation z-score, replicate 2 | gene median z-score, per vendor |
| --- | --- | --- | --- | --- | --- | --- |
| Map1a | 2 | qiagen single siRNA | -1.99 | -2.47 | -1.51 | -1.36 |
| Map1a | 3 | qiagen single siRNA | -2.67 (active) | -1.2 | -4.14 | -1.36 |
| Arhgef25 | 1 | ambion single siRNA | 1.23 | 2.33 | 0.126 | -0.816 |
| Arhgef25 | 2 | ambion single siRNA | -2.54 (active) | -2.24 | -2.84 | -0.816 |
